Results deposited as PubChem BioAssay AID504764 (Drosophila RNAi Screening Center, 2011).
Aim: 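Knock-downs that raise or lower a Notch target reporter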 (primary screen). System: Drosophila Kc167 cells. Reagents: long dsRNA against Drosophila genes. Timing: about 5 days (4 days dsRNA, then 24 h after transfection). Challenge: transfection of constitutively active membrane-tethered Notch lacking the extracellular domain, read 24 h later. Read-out: 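Light from a Notch-responsive E(spl)m3 luciferase reporter under active Notch, with control-promoter and no-Notch reporter wells to normalise; raw counts from paired wells a and b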. Reading the numbers: induced reporter light, run 1, well a and induced reporter light, run 1, well b: higher = more light from the Notch target reporter with active Notch; control promoter light, run 1, well a and control promoter light, run 1, well b: higher = more light from the viral control promoter (cell number, transfection, viability); uninduced reporter light, run 1, well a: higher = more light from the Notch target reporter without active Notch. Call rule: 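Wells with low control signal or poorly matching duplicates excluded; duplicates averaged; per source plate, z beyond ±2 for induced/control log2 ratio or beyond ±1.8 for induced/uninduced marks a hit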. Meaning of the calls: active = modifier hit (raised or lowered Notch signal); inactive = not a hit.
The deposit covers about 22,000 reagents; this is a random part of those that have a named target and a result. Of all reagents, 403 (1.9%) were called active. 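Unnormalised raw counts per well; ratio z-scores behind the hit calls and whether each hit raises or lowers signal are not deposited.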 Names joined by + are all predicted targets of the reagent. Not stated in the record: the amount of reagent.

With morgue (GeneID 33648) [DRSC00264], what does the deposit list?
induced reporter light, run 1, well a: 2.26e5; induced reporter light, run 1, well b: 2.17e5; control promoter light, run 1, well a: 1.77e5; control promoter light, run 1, well b: 2.11e5; uninduced reporter light, run 1, well a: 18115; Call: inactive

Which result is listed for prim (GeneID 36814) [DRSC06575]?
induced reporter light, run 1, well a: 1.23e5; induced reporter light, run 1, well b: 96090; control promoter light, run 1, well a: 1.24e5; control promoter light, run 1, well b: 1.07e5; uninduced reporter light, run 1, well a: 10295; Call: inactive

With Iml1 (GeneID 38176) [DRSC08249], what was measured?
induced reporter light, run 1, well a: 51315; induced reporter light, run 1, well b: 50430; control promoter light, run 1, well a: 58760; control promoter light, run 1, well b: 82260; uninduced reporter light, run 1, well a: 4430; Call: inactive

For CG8236 (GeneID 41047) [DRSC16399], how do the results read?
induced reporter light, run 1, well a: 97055; induced reporter light, run 1, well b: 98035; control promoter light, run 1, well a: 91675; control promoter light, run 1, well b: 1.02e5; uninduced reporter light, run 1, well a: 7170; Call: inactive

2 entries already listed, ordered by “induced reporter light, run 1, well a”, descending.
prim (GeneID 36814) [DRSC06575] → induced reporter light, run 1, well a: 1.23e5; induced reporter light, run 1, well b: 96090; control promoter light, run 1, well a: 1.24e5; control promoter light, run 1, well b: 1.07e5; uninduced reporter light, run 1, well a: 10295; Call: inactive
Iml1 (GeneID 38176) [DRSC08249] → induced reporter light, run 1, well a: 51315; induced reporter light, run 1, well b: 50430; control promoter light, run 1, well a: 58760; control promoter light, run 1, well b: 82260; uninduced reporter light, run 1, well a: 4430; Call: inactive

Additional reagents follow:
For Nadk1b (GeneID 36507) [DRSC05432], what does the deposit list?
induced reporter light, run 1, well a: 1.85e5; induced reporter light, run 1, well b: 1.97e5; control promoter light, run 1, well a: 2.11e5; control promoter light, run 1, well b: 2.30e5; uninduced reporter light, run 1, well a: 18240; Call: inactive

For Nadk1b (GeneID 36507) [DRSC06964], how do the results read?
induced reporter light, run 1, well a: 1.91e5; induced reporter light, run 1, well b: 1.83e5; control promoter light, run 1, well a: 1.67e5; control promoter light, run 1, well b: 1.61e5; uninduced reporter light, run 1, well a: 14565; Call: inactive

With Nadk1b (GeneID 36507) [DRSC06965], what does the deposit list?
induced reporter light, run 1, well a: 80245; induced reporter light, run 1, well b: 75520; control promoter light, run 1, well a: 86035; control promoter light, run 1, well b: 96415; uninduced reporter light, run 1, well a: 7440; Call: inactive

Which result is listed for lark (GeneID 38811) [DRSC11362]?
induced reporter light, run 1, well a: 82220; induced reporter light, run 1, well b: 72030; control promoter light, run 1, well a: 51225; control promoter light, run 1, well b: 31625; uninduced reporter light, run 1, well a: 6120; Call: inactive

For dgt6 (GeneID 43441) [DRSC14424], how do the results read?
induced reporter light, run 1, well a: 1.37e5; induced reporter light, run 1, well b: 1.75e5; control promoter light, run 1, well a: 2.09e5; control promoter light, run 1, well b: 2.02e5; uninduced reporter light, run 1, well a: 11680; Call: inactive

How did the screen score asRNA:CR42743 + CG34162 [DRSC01190]?
induced reporter light, run 1, well a: 1.43e5; induced reporter light, run 1, well b: 1.58e5; control promoter light, run 1, well a: 2.04e5; control promoter light, run 1, well b: 1.53e5; uninduced reporter light, run 1, well a: 11675; Call: inactive

With CG10527 (GeneID 37393) [DRSC04078], how do the results read?
induced reporter light, run 1, well a: 78355; induced reporter light, run 1, well b: 64405; control promoter light, run 1, well a: 47335; control promoter light, run 1, well b: 56115; uninduced reporter light, run 1, well a: 4465; Call: inactive

With ppk15 (GeneID 43188) [DRSC14733], what does the deposit list?
induced reporter light, run 1, well a: 1.52e5; induced reporter light, run 1, well b: 1.31e5; control promoter light, run 1, well a: 1.57e5; control promoter light, run 1, well b: 1.89e5; uninduced reporter light, run 1, well a: 11230; Call: inactive
